{"sequences": {"note": "By UniProt entry, the sequences of proteins in these tests, tags left out. Residues count along the entry.", "UniProt P40763, 2-770": "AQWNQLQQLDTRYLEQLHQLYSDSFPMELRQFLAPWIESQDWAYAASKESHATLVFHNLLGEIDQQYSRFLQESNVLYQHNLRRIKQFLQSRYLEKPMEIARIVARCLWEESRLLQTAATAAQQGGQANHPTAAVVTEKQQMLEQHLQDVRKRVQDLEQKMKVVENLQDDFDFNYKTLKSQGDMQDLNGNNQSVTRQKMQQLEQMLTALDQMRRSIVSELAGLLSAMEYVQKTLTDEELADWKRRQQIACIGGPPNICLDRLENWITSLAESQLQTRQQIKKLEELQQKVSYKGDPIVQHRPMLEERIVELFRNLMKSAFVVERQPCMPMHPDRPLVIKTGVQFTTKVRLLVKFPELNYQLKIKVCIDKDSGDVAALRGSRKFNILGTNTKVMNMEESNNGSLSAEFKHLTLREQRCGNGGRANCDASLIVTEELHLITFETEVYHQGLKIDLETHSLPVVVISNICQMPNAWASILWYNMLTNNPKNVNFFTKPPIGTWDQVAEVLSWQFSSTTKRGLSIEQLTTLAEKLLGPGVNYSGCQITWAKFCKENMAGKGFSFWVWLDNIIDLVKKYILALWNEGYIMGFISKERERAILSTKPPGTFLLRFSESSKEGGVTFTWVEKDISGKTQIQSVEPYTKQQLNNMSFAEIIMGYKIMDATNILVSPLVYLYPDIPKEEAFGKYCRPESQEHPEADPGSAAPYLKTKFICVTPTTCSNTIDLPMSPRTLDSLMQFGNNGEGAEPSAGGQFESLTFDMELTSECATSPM", "UniProt P42224, 2-750": "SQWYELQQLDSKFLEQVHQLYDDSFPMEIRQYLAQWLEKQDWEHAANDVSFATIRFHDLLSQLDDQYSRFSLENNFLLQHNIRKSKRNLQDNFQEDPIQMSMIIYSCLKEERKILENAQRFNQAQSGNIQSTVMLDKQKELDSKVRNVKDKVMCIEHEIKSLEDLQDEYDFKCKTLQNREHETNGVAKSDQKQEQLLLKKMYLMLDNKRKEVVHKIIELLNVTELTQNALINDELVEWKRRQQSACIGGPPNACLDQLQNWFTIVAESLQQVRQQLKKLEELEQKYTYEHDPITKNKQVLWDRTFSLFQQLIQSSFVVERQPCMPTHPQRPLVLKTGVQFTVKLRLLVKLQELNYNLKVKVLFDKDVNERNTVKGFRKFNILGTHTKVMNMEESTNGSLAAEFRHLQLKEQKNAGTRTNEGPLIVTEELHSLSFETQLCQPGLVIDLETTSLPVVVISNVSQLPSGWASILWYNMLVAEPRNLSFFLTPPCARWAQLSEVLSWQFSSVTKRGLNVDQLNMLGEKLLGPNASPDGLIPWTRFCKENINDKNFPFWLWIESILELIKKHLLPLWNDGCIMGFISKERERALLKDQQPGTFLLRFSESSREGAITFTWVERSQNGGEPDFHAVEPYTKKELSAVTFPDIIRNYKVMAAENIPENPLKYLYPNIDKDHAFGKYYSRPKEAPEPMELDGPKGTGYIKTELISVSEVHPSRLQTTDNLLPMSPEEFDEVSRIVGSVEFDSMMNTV"}, "source": "patent US20150094353", "key": {"STAT3 (human)": {"target": "STAT3 (human) (UniProt P40763)", "experiment": "EMSA", "settings": "supershift with STAT3 antibody and 100-fold cold probe competition; 10 mM HEPES pH 7.9, 50 mM KCl, poly(dI-dC), RT; binding inhibited by inS3-54 with IC50 about 20 uM; protein in a lysate after overexpression; protein details: FLAG, transiently expressed in H1299 cells; label: 32P"}, "STAT1": {"target": "STAT1 (UniProt P42224)", "experiment": "EMSA", "settings": "STAT1 antibody interference and cold competition; 10 mM HEPES pH 7.9, 50 mM KCl, RT; not affected by inS3-54 up to 300 uM; protein in a lysate after overexpression; label: 32P"}}, "note": "Results from cells or extracts need not show a direct contact."}
{"sequence": "AGCTTCATTTCCCGTAAATCCCTA (double strand) [SIE probe]", "values": [{"measurement": "binding result", "setting": "STAT3 (human)", "value": "binds"}, {"measurement": "binding result", "setting": "STAT1", "value": "binds"}]}
